{"sequences": {"note": "Protein sequences, listed by entry. Tags and fused reporters are not part of them.", "UniProt P08684, whole entry": "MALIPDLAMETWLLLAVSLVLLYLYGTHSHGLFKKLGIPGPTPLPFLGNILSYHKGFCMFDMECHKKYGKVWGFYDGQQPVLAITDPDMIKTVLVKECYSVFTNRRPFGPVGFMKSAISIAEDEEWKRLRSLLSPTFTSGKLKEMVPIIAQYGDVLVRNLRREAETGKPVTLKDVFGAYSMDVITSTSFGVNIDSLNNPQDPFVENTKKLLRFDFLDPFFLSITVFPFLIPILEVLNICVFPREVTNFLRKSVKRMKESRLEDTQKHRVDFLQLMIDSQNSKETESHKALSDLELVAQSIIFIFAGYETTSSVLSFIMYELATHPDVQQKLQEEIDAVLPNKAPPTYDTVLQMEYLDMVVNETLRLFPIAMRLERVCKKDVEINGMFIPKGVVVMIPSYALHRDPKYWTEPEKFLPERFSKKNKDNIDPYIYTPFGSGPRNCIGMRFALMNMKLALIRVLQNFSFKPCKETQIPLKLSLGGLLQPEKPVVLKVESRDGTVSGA"}, "source": "patent US6420131B1", "about": "“Use of fluorescein aryl ethers in high throughput cytochrome P450 inhibition assays” (Gentest Corporation, priority 1999, dated 2002)", "biological_target": "human CYP3A4 (Homo sapiens, UniProt P08684)", "data": [{"smiles": "COC(=O)C1=C(C)NC(C)=C(C(=O)OC)C1c1ccccc1[N+](=O)[O-]", "note": "[Nifedipine]", "values": [{"measurement": "Range", "result": 17}]}]}
